Results are given in words; binding and its absence hold for the method and conditions named. In cells and extracts the contact can be indirect. Binding can be weak; no strength is given.

Here are results for one substance from article PMC8436908.

The target in this assay is T1, prolactin receptor (PRLR) (mouse (endogenous in GT1-7)) (UniProt Q08501).
T1 sequence: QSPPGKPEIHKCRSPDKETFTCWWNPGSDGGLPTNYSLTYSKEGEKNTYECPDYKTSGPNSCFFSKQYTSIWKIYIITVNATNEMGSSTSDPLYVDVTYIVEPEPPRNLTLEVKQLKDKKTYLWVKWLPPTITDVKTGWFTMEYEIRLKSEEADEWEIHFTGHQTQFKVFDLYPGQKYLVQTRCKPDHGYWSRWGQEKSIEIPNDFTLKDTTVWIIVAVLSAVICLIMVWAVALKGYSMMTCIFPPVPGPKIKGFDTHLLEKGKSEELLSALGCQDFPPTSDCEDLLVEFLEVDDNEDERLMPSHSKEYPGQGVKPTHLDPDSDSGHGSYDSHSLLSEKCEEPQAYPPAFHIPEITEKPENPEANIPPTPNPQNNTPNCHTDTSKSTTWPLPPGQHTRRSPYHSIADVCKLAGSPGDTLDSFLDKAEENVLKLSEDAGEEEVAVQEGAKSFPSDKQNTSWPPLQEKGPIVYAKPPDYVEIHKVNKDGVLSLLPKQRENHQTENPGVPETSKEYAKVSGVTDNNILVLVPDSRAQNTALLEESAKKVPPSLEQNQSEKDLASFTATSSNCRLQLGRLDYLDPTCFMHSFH
Description: co-IP; anti-PRLR antibody (IgG as control) added to RIPA lysate of GT1-7 cells at 4 C overnight, captured on protein A/G-agarose, western blot; cells treated for 72 h with blank CSF (Control), 200 ng/mL PRL (HPRL) or PRL + BSZY-D-containing CSF, with 10 uM MG132.

Take β-Trcp (mouse (endogenous in GT1-7)): the binding result is “binds”.
